“And” between values parts separate entries of the source, which are not always exact repeats. Equal values may be shown once. The list shows a part of the results. For some assays here: Construct or isoform of the protein are uncertain.

The chains behind the UniProt entries cited, without tags or fusion partners. Where a name states a change or a piece, a line headed by the entry shows the natural chain unless it says otherwise.
UniProt Q9HCP0: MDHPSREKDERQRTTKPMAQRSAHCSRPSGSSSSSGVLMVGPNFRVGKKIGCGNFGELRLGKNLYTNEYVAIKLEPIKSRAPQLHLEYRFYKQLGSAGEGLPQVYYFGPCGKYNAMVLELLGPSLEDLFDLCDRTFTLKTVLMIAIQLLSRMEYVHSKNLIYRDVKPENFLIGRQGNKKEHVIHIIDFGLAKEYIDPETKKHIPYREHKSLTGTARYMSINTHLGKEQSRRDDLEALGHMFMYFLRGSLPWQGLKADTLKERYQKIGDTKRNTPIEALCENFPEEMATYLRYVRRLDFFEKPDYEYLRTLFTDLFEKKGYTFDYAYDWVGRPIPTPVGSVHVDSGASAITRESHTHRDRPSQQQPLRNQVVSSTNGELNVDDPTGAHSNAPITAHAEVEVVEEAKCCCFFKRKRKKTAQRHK

Test systems include COBRA1 (human); COG8 (human); COL4A3BP (human); COMMD1 (human); COMMD2 (human); COPZ1 (human); COX4I2 (human); COX4NB (human); COX5B (human); CPLX1 (human); CRABP2 (human); CRADD (human); CRLF3 (human); CRYAA (human); CRYBA1 (human); CSF1 (human); CTBP1 (human); CTNNB1 (human); CTXN1 (human).
Experiment in all cases: protein microarray (ProtoArray v5.0), streptavidin-Alexa Fluor 647
What all share (conditions): 3'-biotin; 20 mM Tris (pH 7.5), 5 mM MgCl2, 100 mM KCl, 0.1% Tween-20, A/T-rich and random oligonucleotide blockers; temperature not stated; high values mean tight binding

In a further assay the target is CSNK1G1 (UniProt Q9HCP0).

Consider “GGTGACAGGGGTATGGGGAGGGG [G4-2 biotinylated (Ct1)]”, for which the binding signal was -0.383 z-score in the assay on COBRA1 (human); -0.398 z-score with COG8 (human); -0.382 z-score in the assay on COL4A3BP (human); -0.363 z-score with COMMD1 (human); -0.367 z-score in the assay on COMMD2 (human); -0.4 z-score with COPZ1 (human). The binding signal in the assay with COX4I2 (human) is -0.395 z-score; in the assay with COX4NB (human) it was -0.397 z-score; in the assay on COX5B (human), -0.39 z-score; in the assay with CPLX1 (human) it was -0.392 z-score; in the assay with CRABP2 (human), -0.368 z-score; in the assay on CRADD (human) it was -0.401 z-score. In addition, the binding signal in the assay on CRLF3 (human) is -0.389 z-score; with CRYAA (human), -0.375 z-score; in the assay on CRYBA1 (human), -0.368 z-score; in the assay with CSF1 (human), -0.39 z-score; in the assay with CSNK1G1 it was 4.05 z-score; in the assay on CTBP1 (human) it was -0.385 z-score and -0.393 z-score. The binding signal in the assay with CTNNB1 (human) was -0.396 z-score; with CTXN1 (human), -0.371 z-score.
